Earlier results in US20090304692A1, “TRIAZINE COMPOUNDS AS PI3 KINASE AND MTOR INHIBITORS” (Wyeth, priority 2008, published 2009).
At least one compound was matched to its structure with a doubt left.

Test system: mouse cancer models
Conditions: prostrate, breast, ovarian, lung, multiple myeloma, and brain cancers; cited from earlier work

In the case of `N=C(N)NCCC[C@H](NC(=O)CCC(=O)OC[N+]1(c2cc(=O)c3cccc(-c4ccccc4)c3o2)CCOCC1)C(=O)NCC(=O)N[C@@H](CC(=O)O)C(=O)N[C@@H](CO)C(=O)[O-]` [SF-1126], the “activity in preclinical mouse cancer models” value is given as “active”.
